Measurements as given in patent US20230176070A1.
No constants are given. Whether binding was seen depends on the method and setting. Some binding calls cover weakened binding; strength is not graded here. For some assays here: Where a sequence is shown, tags or fusion partners need not be part of it.

Assays:
[1] = target: T1, MBP-PDZ fusion protein (mammalian (so in the source)) (UniProt P57105); assay: beads-binding assay, MBP-PDZ-coupled resin
T1 sequence (looked up): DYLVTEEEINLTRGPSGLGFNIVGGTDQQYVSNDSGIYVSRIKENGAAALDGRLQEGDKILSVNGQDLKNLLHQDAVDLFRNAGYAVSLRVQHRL

[2] = target: glutathione S-transferase [GST: P08515]; assay: beads-binding assay, GST-coupled resin

B1: P12 (VHH)
VHH: MASMTGGQQMGRNSAQVQLVESGGGLVQAGGSLRLSCTASGRTFSTYTMAWFRQAPGKEREFVAAISWSGAYYAESVKGRFTISRDNAKNTVYLQMNSLKPEDTAVYYCAAVIGSTVDSYSPSDPLEYDYWARGPRSPSEPKTPKGGCGGGLEHHHHHH
In the case of B1, the binding [1] is reported as “binds”.

B2: G60 (VHH)
VHH: QMGRNSAEVQLVESGGSLRLSCAASGSGFSSSIIAWYRQAPGKQRELVAAIGGPGSTNYADFVEGRFTISRDNAKNTGYLQMNNLNPEDTAVYYCNEVTRSGREYWGQGTQVTVSS
With B2 the binding [2] was “binds”.
